These are yes or no findings as the source states them, for the method shown. In cells and extracts the contact can be indirect. Some results given as binding are weak or reduced against the parent protein; the word gives no strength.
Biological target: NF45 (Jurkat) (human (endogenous in Jurkat)) (UniProt Q12905)
Experiment: co-IP; Jurkat cells treated with PMA/ionomycin (P/I); RIPA lysate with nuclease, sonicated; antibody and protein A/G agarose overnight at 4°C; washed three times with TBST; Western blot

By UniProt entry, the sequences of proteins in these tests, tags left out.
UniProt Q12905: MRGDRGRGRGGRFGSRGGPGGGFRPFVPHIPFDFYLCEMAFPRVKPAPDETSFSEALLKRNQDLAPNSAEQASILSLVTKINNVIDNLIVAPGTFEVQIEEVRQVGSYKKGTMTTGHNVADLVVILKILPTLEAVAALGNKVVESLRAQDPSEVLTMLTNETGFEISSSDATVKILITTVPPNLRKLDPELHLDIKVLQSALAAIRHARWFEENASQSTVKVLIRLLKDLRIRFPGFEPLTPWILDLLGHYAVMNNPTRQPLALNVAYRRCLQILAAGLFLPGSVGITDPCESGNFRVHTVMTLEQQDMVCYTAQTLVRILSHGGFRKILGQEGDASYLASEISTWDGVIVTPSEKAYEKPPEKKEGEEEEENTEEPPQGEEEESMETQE

binding: binds
B1: NFATc1 (protein, UniProt O95644 1-943)
chain: MPSTSFPVPSKFPLGPAAAVFGRGETLGPAPRAGGTMKSAEEEHYGYASSNVSPALPLPTAHSTLPAPCHNLQTSTPGIIPPADHPSGYGAALDGGPAGYFLSSGHTRPDGAPALESPRIEITSCLGLYHNNNQFFHDVEVEDVLPSSKRSPSTATLSLPSLEAYRDPSCLSPASSLSSRSCNSEASSYESNYSYPYASPQTSPWQSPCVSPKTTDPEEGFPRGLGACTLLGSPRHSPSTSPRASVTEESWLGARSSRPASPCNKRKYSLNGRQPPYSPHHSPTPSPHGSPRVSVTDDSWLGNTTQYTSSAIVAAINALTTDSSLDLGDGVPVKSRKTTLEQPPSVALKVEPVGEDLGSPPPPADFAPEDYSSFQHIRKGGFCDQYLAVPQHPYQWAKPKPLSPTSYMSPTLPALDWQLPSHSGPYELRIEVQPKSHHRAHYETEGSRGAVKASAGGHPIVQLHGYLENEPLMLQLFIGTADDRLLRPHAFYQVHRITGKTVSTTSHEAILSNTKVLEIPLLPENSMRAVIDCAGILKLRNSDIELRKGETDIGRKNTRVRLVFRVHVPQPSGRTLSLQVASNPIECSQRSAQELPLVEKQSTDSYPVVGGKKMVLSGHNFLQDSKVIFVEKAPDGHHVWEMEAKTDRDLCKPNSLVVEIPPFRNQRITSPVHVSFYVCNGKRKRSQYQRFTYLPANVPIIKTEPTDDYEPAPTCGPVSQGLSPLPRPYYSQQLAMPPDPSSCLVAGFPPCPQRSTLMPAAPGVSPKLHDLSPAAYTKGVASPGHCHLGLPQPAGEAPAVQDVPRPVATHPGSPGQPPPALLPQQVSAPPSSSCPPGLEHSLCPSSPSPPLPPATQEPTCLQPCSPACPPATGRPQHLPSTVRRDESPTAGPRLLPEVHEDGSPNLAPIPVTVKREPEELDQLYLDDVNEIIRNDLSSTSTHS

— PMC7933818
